# Results published in the supplement of paper PMC8728848.
# The list shows a part of the results.
# B1: PP2A1 (Arabidopsis thaliana) (protein)
# chain: MFRNQDSKYLIPVQKEAPPVTTLPMKASTVKSPHNCEAILRDADPPISLSSVNLSEQLRSGVFLKPKKQIKYWVDERNSNCFMLFAKNLSITWSDDVNYWTWFTEKESPNENVEAVGLKNVCWLDITGKFDTRNLTPGIVYEVVFKVKLEDPAYGWDTPVNLKLVLPNGKEKPQEKKVSLRELPRYKWVDVRVGEFVPEKSAAGEITFSMYEHAAGVWKKGLSLKGVAIRPKQHHHHHH
# How the values were obtained:
# Experiment in all cases: glycan array binding signal (z-score within array); higher = stronger binding
# Conditions in all cases: glycan notation: IUPAC condensed, linker removed
# [1] = biological target: GlcNAc(b1-6)GalNAc
# Summary of the method: (§1)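 The binding signal is a Z-score computed within each array and averaged over linkers. Arrays of the same protein sequence at different concentrations or buffers were also averaged together. Data originate from 3228 arrays in the Consortium for Functional Glycomics database, kept only where the protein sequence was available.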
# [2] = biological target: GlcNAc3Prop(b1-4)GlcNAc
# Summary of the method: as §1
# [3] = biological target: GlcNAc6S(b1-3)Gal(b1-4)GlcNAc
# Summary of the method: as §1
# [4] = biological target: Kdn(a2-3)Gal(b1-3)GalNAc
# Summary of the method: as §1
# [5] = biological target: Kdn(a2-3)Gal(b1-3)GlcNAc
# Summary of the method: as §1
# [6] = biological target: Kdn(a2-3)Gal(b1-4)Glc
# Summary of the method: as §1
# [7] = biological target: Kdn(a2-3)Gal(b1-4)GlcNAc
# Summary of the method: as §1
# [8] = biological target: Kdn(a2-3)Gal(b1-4)[Fuc(a1-3)]GlcNAc
# Summary of the method: as §1
# [9] = biological target: Kdn(a2-6)Gal(b1-4)GlcNAc
# Summary of the method: as §1
# [10] = biological target: Man(a1-2)Man(a1-2)Man(a1-3)Man
# Summary of the method: as §1
# [11] = biological target: Man(a1-2)Man(a1-2)Man(a1-6)[Man(a1-3)]Man
# Summary of the method: as §1
# [12] = biological target: Man(a1-2)Man(a1-3)Man
# Summary of the method: as §1
# [13] = biological target: Man(a1-2)Man(a1-3)[Man(a1-2)Man(a1-6)]Man
# Summary of the method: as §1
# [14] = biological target: Man(a1-2)Man(a1-3)[Man(a1-2)Man(a1-6)]Man(a1-6)[Man(a1-2)Man(a1-2)Man(a1-3)]Man
# Summary of the method: as §1
# [15] = biological target: Man(a1-2)Man(a1-3)[Man(a1-2)Man(a1-6)]Man(a1-6)[Man(a1-2)Man(a1-2)Man(a1-3)]Man(b1-4)GlcNAc(b1-4)GlcNAc
# Summary of the method: as §1
# [16] = biological target: Man(a1-2)Man(a1-3)[Man(a1-6)]Man(a1-6)[Man(a1-2)Man(a1-3)]Man(b1-4)GlcNAc(b1-4)GlcNAc
# Summary of the method: as §1
# [17] = biological target: Man(a1-2)Man(a1-6)[Man(a1-3)]Man(a1-6)[Man(a1-2)Man(a1-2)Man(a1-3)]Man
# Summary of the method: as §1
# [18] = biological target: Man(a1-2)Man(a1-6)[Man(a1-3)]Man(a1-6)[Man(a1-2)Man(a1-2)Man(a1-3)]Man(b1-4)GlcNAc(b1-4)GlcNAc
# Summary of the method: as §1
# [19] = biological target: Man(a1-3)[Man(a1-6)]Man
# Summary of the method: as §1
# [20] = biological target: Man(a1-3)[Man(a1-6)]Man(a1-6)[Man(a1-2)Man(a1-3)]Man(b1-4)GlcNAc(b1-4)GlcNAc
# Summary of the method: as §1
# [21] = biological target: Man(a1-3)[Man(a1-6)]Man(a1-6)[Man(a1-3)]Man
# Summary of the method: as §1
# [22] = biological target: Man(a1-3)[Man(a1-6)]Man(a1-6)[Man(a1-3)]Man(b1-4)GlcNAc(b1-4)GlcNAc
# Summary of the method: as §1
# [23] = biological target: Man(a1-3)[Man(a1-6)]Man(b1-4)GlcNAc(b1-4)GlcNAc
# Summary of the method: as §1
# [24] = biological target: Man(a1-6)Man
# Summary of the method: as §1
# [25] = biological target: Man(b1-4)GlcNAc
# Summary of the method: as §1
# [26] = biological target: Neu5Ac(a2-3)Gal
# Summary of the method: as §1
# [27] = biological target: Neu5Ac(a2-3)Gal(b1-3)GalNAc
# Summary of the method: as §1
# [28] = biological target: Neu5Ac(a2-3)Gal(b1-3)GalNAc(b1-3)Gal(a1-4)Gal(b1-4)Glc
# Summary of the method: as §1
# [29] = biological target: Neu5Ac(a2-3)Gal(b1-3)GalNAc(b1-3)Gal(b1-4)GlcNAc
# Summary of the method: as §1
# [30] = biological target: Neu5Ac(a2-3)Gal(b1-3)GalNAc(b1-4)[Neu5Ac(a2-3)]Gal(b1-4)Glc
# Summary of the method: as §1
# [31] = biological target: Neu5Ac(a2-3)Gal(b1-3)GalNAc6S
# Summary of the method: as §1
# [32] = biological target: Neu5Ac(a2-3)Gal(b1-3)GlcNAc
# Summary of the method: as §1
# [33] = biological target: Neu5Ac(a2-3)Gal(b1-3)GlcNAc(b1-3)Gal(b1-3)GlcNAc
# Summary of the method: as §1
# [34] = biological target: Neu5Ac(a2-3)Gal(b1-3)GlcNAc6S
# Summary of the method: as §1
# [35] = biological target: Neu5Ac(a2-3)Gal(b1-3)[Fuc(a1-4)]GlcNAc
# Summary of the method: as §1
# [36] = biological target: Neu5Ac(a2-3)Gal(b1-3)[Fuc(a1-4)]GlcNAc(b1-3)Gal(b1-3)[Fuc(a1-4)]GlcNAc
# Summary of the method: as §1
binder,measurement,setting,value
B1,glycan array binding signal (z-score),[1],-0.655
same,glycan array binding signal (z-score),[2],-0.608
same,glycan array binding signal (z-score),[3],-0.237
same,glycan array binding signal (z-score),[4],-0.162
same,glycan array binding signal (z-score),[5],-0.243
same,glycan array binding signal (z-score),[6],-0.46
same,glycan array binding signal (z-score),[7],0.076
same,glycan array binding signal (z-score),[8],-0.169
same,glycan array binding signal (z-score),[9],-0.455
same,glycan array binding signal (z-score),[10],-0.323
same,glycan array binding signal (z-score),[11],0.03
same,glycan array binding signal (z-score),[12],-0.345
same,glycan array binding signal (z-score),[13],0.174
same,glycan array binding signal (z-score),[14],-0.318
same,glycan array binding signal (z-score),[15],1.07
same,glycan array binding signal (z-score),[16],3.07
same,glycan array binding signal (z-score),[17],-0.305
same,glycan array binding signal (z-score),[18],2.69
same,glycan array binding signal (z-score),[19],-0.025
same,glycan array binding signal (z-score),[20],2.97
same,glycan array binding signal (z-score),[21],-0.509
same,glycan array binding signal (z-score),[22],3.55
same,glycan array binding signal (z-score),[23],2.85
same,glycan array binding signal (z-score),[24],-0.585
same,glycan array binding signal (z-score),[25],-0.006
same,glycan array binding signal (z-score),[26],-0.354
same,glycan array binding signal (z-score),[27],-0.38
same,glycan array binding signal (z-score),[28],-0.176
same,glycan array binding signal (z-score),[29],-0.417
same,glycan array binding signal (z-score),[30],-0.335
same,glycan array binding signal (z-score),[31],0.425
same,glycan array binding signal (z-score),[32],-0.389
same,glycan array binding signal (z-score),[33],0.141
same,glycan array binding signal (z-score),[34],-0.303
same,glycan array binding signal (z-score),[35],-0.518
same,glycan array binding signal (z-score),[36],0.594

# Some of the entries so far, bar-delimited:
binder | measurement | setting | value
B1 | glycan array binding signal (z-score) | [30] | -0.335
same | glycan array binding signal (z-score) | [31] | 0.425
